This test can be described thus: qHTS Assay to Find Inhibitors of Chronic Active B-Cell Receptor Signaling. The settings on record: ABC-DLBCL IkBa-CBG/CBR reporter, luminescence ratio (green luciferase fused to IkBa over red control in TMD8 lymphoma cells), 4 h. The procedure, abridged:
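Cell line TMD8 (human ABC DLBCL), stably expressing tet-inducible CBG68-IkBa fusion and CBR; IMDM/0.5% FBS; cpd up to 46 uM; dox induction, 4 h, 37C/5% CO2; dual luminescence; green/red ratio; MG132 control.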
A general note: Quantitative high-throughput screening tests each substance at several concentrations.

[1] abbreviates: measured here: CBR red luminescence, cell number.
The mark [2] stands for this setting: measured here: IkBa-CBG green luminescence.

Structures are written as SMILES. The list shows a part of the results. The main result of the screen is listed elsewhere. These columns were measured beside it and carry no call. Most of these compounds were active or inconclusive in the main read-out, so they are no random draw. The note in brackets gives the kind of curve behind each potency; many fits are weak.

Take `CCc1ccc(C(=O)CN(C#N)c2nc(C)cc(C)n2)cc1`: the AC50 under setting [1] was 6.31 µM [falling, single point].
Same read-out and setting: the figure for `O=C(NNc1ccc(C(F)(F)F)cc1[N+](=O)[O-])c1ccc(NS(=O)(=O)c2ccc(F)cc2)cc1` is 25.9 µM [falling, partial curve, poor fit]; for `CC1(C)C(C=C(Cl)Cl)C1C(=O)NC(O)C(=O)c1ccccc1` (centres undefined) it is 15.8 µM [falling, partial curve, poor fit]; for `CC1CC2(C)Oc3ccccc3CC2C(C)C1CNCCCN(C)C` (centres undefined) it is 8.91 µM [falling, partial curve].
`O=C(NCCO)c1cccc(Cl)c1`: under setting [1], the AC50 was 0.206 µM [rising, partial curve, poor fit].
On the same count and under the same terms, as for `O=C(CCc1ccccc1)Nc1cc2c(cc1C(=O)O)OCCCO2`, the figure is 5.8 µM [falling, partial curve]; as for `COc1cccc(C(C(=O)NC2CCCC2)N(C(=O)c2ccco2)c2ccccc2)c1OC` (centres undefined), 1 µM [falling, partial curve, poor fit].
Same read-out and setting: as for `CCCc1ccc(C(=O)O/N=C(\N)c2ccccn2)cc1`, the figure is 20 µM [falling, single point]; as for `COc1ccc(C(=O)OCC#CCSc2nnc(-c3cccc4ccccc34)o2)cc1`, 3.26 µM [falling, partial curve, poor fit].
Take `O=C(CSc1nnnn1-c1cccnc1)Nc1ccccc1F`: the AC50 under setting [1] was 7.94 µM [falling, single point].
Same read-out and setting: as for `CCOC(=O)c1cnc(-n2nc(C)cc2C)nc1Nc1cccc(C(=O)O)c1`, the figure is 7.08 µM [falling, partial curve].
Still for that read-out and setting: as for `Cc1cccc(OCc2nnc(SCC(=O)Nc3cccc(C(=O)N4CCOCC4)c3)n2C)c1`, the figure is 0.00461 µM [rising, full curve, poor fit].
With `O=[N+]([O-])c1ccc(Cl)c(/C=N/Nc2nc(N3CCOCC3)nc(N3CCOCC3)n2)c1`, the AC50 under setting [1] was 29.1 µM [rising, single point].
On the same count and under the same terms, as for `COc1ccc2nc(NC(=O)c3ccc(Br)s3)sc2c1`, the figure is 7.31 µM [falling, partial curve, poor fit].
For `CCOc1ccc(/C=N/NC(=O)Cc2csc(Nc3cccc(C(F)(F)F)c3)n2)cc1`, the AC50 is 14.6 µM [falling, partial curve] under setting [1] and 25.9 µM [rising, partial curve, poor fit] under setting [2].
`CCOC(=O)N1CCc2c(sc3c2C(=O)NC(c2cc(OC)c(O)c(OC)c2)N3)C1` (centres undefined): under setting [1], the AC50 is 15.8 µM [falling, partial curve, poor fit].
On the same count and under the same terms, the figure for `O=C(Nc1cccc(Cl)c1Cl)c1cc(S(=O)(=O)NCCc2ccccc2)ccc1F` is 11.2 µM [falling, partial curve, poor fit].
Regarding `CCOC(=O)C1CCCN(C(=O)c2cccc(S(=O)(=O)N3CCCC3)c2)C1` (centres undefined), under setting [1], the AC50 is 0.0082 µM [rising, full curve, poor fit].
Same read-out and setting: the figure for `Cc1ccc(/C=N/NC(=O)c2cccs2)cc1[N+](=O)[O-]` is 12.6 µM [falling, partial curve].
As to `Cc1ccccc1-n1c(SCC(=O)N/N=C/c2c(C)nn(-c3ccccc3)c2C)nc2ccccc2c1=O`, the AC50 under setting [1] is 0.184 µM [rising, full curve, poor fit] and the AC50 under setting [2] was 2.31 µM [falling, partial curve, poor fit].
Regarding `O=C(CP(=O)(c1ccccc1)c1ccccc1)Nn1cnnc1`, the AC50 under setting [1] is 3.55 µM [rising, partial curve, poor fit].
On the same count and under the same terms, as for `Cc1cccc(N=Nc2cnc(N)s2)c1`, the figure is 3.55 µM [rising, single point]; as for `CC(=O)OC1OCCOC1NC(=S)Nc1cccc(C(F)(F)F)c1` (centres undefined), 0.398 µM [rising, full curve, poor fit].
On to `N#C/C(=C\c1cccc(O)c1)C(=O)Nc1ccc2c(c1)OCCO2`, for which, under setting [1], the AC50 was 22.4 µM [falling, partial curve].
The same measure, in the same setting: as for `O=C(Nc1sccc1C(=O)N1CCOCC1)c1cccnc1`, the figure is 29.1 µM [falling, partial curve, poor fit]; as for `O=C(/C=C/c1ccco1)NC(=S)Nc1ccccn1`, 16.4 µM [falling, partial curve]; as for `NC(=O)C1CCCN(C(=S)NCc2ccc3c(c2)OCO3)C1` (centres undefined), 35.5 µM [falling, single point].
Still for that read-out and setting: as for `COc1ccc(CNC(=O)c2cc(=O)c3cc(C)ccc3o2)cc1`, the figure is 3.55 µM [rising, full curve].
Take `Cc1cccc(C)c1NC(=O)CN(C)C(C)C(=O)Nc1ccccc1-c1ccccc1` (centres undefined): the AC50 under setting [1] was 35.5 µM [falling, single point].
Turning to `COc1ccc(CNc2nc(C)cc(C)c2C#N)cc1`, the AC50 under setting [1] is 7.94 µM [rising, partial curve, poor fit].
Still for that read-out and setting: as for `Cn1c(=NC(=O)C2CC2)sc2cc(F)cc(F)c21`, the figure is 0.164 µM [falling, full curve, poor fit]; as for `CCCc1[nH]n(-c2ccc([N+](=O)[O-])cc2)c(=O)c1C=NCCc1ccc(OC)c(OC)c1`, 0.794 µM [rising, partial curve, poor fit]; as for `Cc1ccc(/C=C/C(=O)C2C(=O)c3ccccc3C2=O)cc1`, 1.78 µM [falling, full curve].
`CCC(=O)c1ccc(CCCCCC(=O)O)s1`: under setting [1], the AC50 was 0.731 µM [falling, full curve, poor fit].
On the same count and under the same terms, as for `COc1ccccc1NC(=S)NC(=O)CCCOc1ccc(Cl)cc1Cl`, the figure is 16.4 µM [falling, single point]; as for `COc1ccc(/C=N/Nc2nc(C)c([N+](=O)[O-])c(N(C)c3ccccc3)n2)cc1OC`, 20 µM [rising, partial curve, poor fit].
On to `N#Cc1ccc(CSc2nnc(NC(=O)c3ccc4ncsc4c3)s2)cc1`, for which the AC50 under setting [1] was 35.5 µM [falling, single point].
Same read-out and setting: the figure for `CC[C@]12c3[nH]c4ccccc4c3CCN1C(=O)C(CC(=O)NCCCn1ccnc1)C[C@@H]2C(=O)N1CCN(C(=O)c2ccco2)CC1` (some centres undefined) is 3.66 µM [rising, partial curve, poor fit].
As for `CCc1ccccc1N(C)S(=O)(=O)c1ccc(-c2cc(C)no2)s1`, the AC50 under setting [2] is 11.2 µM [falling, partial curve, poor fit].
`Cc1ccccc1NC(=O)CSc1nnc(-c2ccccn2)o1`: the AC50 under setting [1] was 6.31 µM [falling, partial curve, poor fit].
Still for that read-out and setting: as for `Fc1ccc(-n2c(-c3cccs3)nc3nc4ccccc4nc32)cc1`, the figure is 3.66 µM [rising, partial curve, poor fit]; as for `O=c1cc2[nH]c3ccccc3c(=O)n2nc1-c1ccccc1`, 1.84 µM [falling, full curve]; as for `COc1cccc(NC(=O)CN(C)C(=O)CCCc2nc3ccccc3c(=O)[nH]2)c1`, 1.84 µM [rising, single point].
Take `CCC(=O)Nc1cccc(C(=O)Nc2nccs2)c1`: the AC50 under setting [1] is 5.62 µM [falling, partial curve, poor fit].
As for `COc1ccc(NC(=O)CN(c2ccccc2)S(=O)(=O)N(C)C)cc1Cl`, under setting [1], the half-maximal activity concentration (AC50) was 35.5 µM [falling, single point].
With `COc1ccc(CN(C)C(=O)c2ccc(NC(=O)CC3SC(N4CCCC4)=NC3=O)cc2)c(OC)c1` (centres undefined), the AC50 under setting [1] was 3.26 µM [rising, full curve].
On to `CN(C(=O)COC(=O)CNC(=O)C1CCCCC1)c1ccccc1`, for which the concentration at half-maximal activity (AC50) under setting [1] was 32.6 µM [rising, partial curve, poor fit].
The same measure, in the same setting: the figure for `Cc1cccc2sc(NS(=O)(=O)c3ccccc3)nc12` is 11.2 µM [rising, partial curve]; for `CCN(CC)CCNC(=O)c1sc2ncn(CC(=O)Nc3ccc(C)c(Cl)c3)c(=O)c2c1C` it is 25.1 µM [falling, single point]; for `COc1ccc(-c2csc(NC3OC(=O)c4ccccc43)n2)cc1` (centres undefined) it is 10 µM [falling, partial curve, poor fit].
For the compound `O=C(CN1N=C(c2ccccc2)CCC1=O)NCc1ccccc1`, the AC50 under setting [1] is 0.1 µM [rising, full curve, poor fit].
Take `O=C(NCc1ccc2c(c1)CCN2C(=O)c1ccc(F)cc1)c1ccco1`: the half-maximal activity concentration (AC50) under setting [1] is 8.91 µM [falling, full curve, poor fit].
The same measure, in the same setting: as for `O=[N+]([O-])c1cc(/C=N/OCc2c(Cl)cccc2Cl)ccc1N1CCOCC1`, the figure is 9.2 µM [rising, partial curve]; as for `COc1cc(/C=C(\C#N)C(=O)Nc2ccc(SC(F)F)cc2)cc(OC)c1OC`, 10.3 µM [falling, partial curve]; as for `COc1ccc(CNCc2cc(C)c(OC)cc2C)c(OC)c1`, 35.5 µM [falling, single point].
Consider `Cc1ccc(C(=O)O/N=C(\N)c2ccccn2)c(C)c1`, for which, under setting [1], the AC50 was 0.794 µM [falling, full curve].
Same read-out and setting: the figure for `O=C(Nc1ccc2oc(-c3ccc4ccccc4c3)nc2c1)c1ccc2c(c1)OCCO2` is 3.55 µM [rising, partial curve, poor fit].
On to `CCCC(O)(CCC)C(=O)NN(C(=O)CCl)c1ccccc1`, for which the concentration at half-maximal activity (AC50) under setting [2] is 29.1 µM [rising, partial curve, poor fit].
Take `O=C(Nc1ccc(Cl)c(Cl)c1)c1cccnc1`: the AC50 under setting [1] was 22.4 µM [rising, partial curve, poor fit].
As for `NS(=O)(=O)c1ccc(CCNC(=O)Cc2ccc(S(=O)(=O)N3CCCC3)s2)cc1`, under setting [1], the AC50 is 6.31 µM [rising, partial curve, poor fit].
In the case of `O=C(NC1=NCCS1)c1cc2ccccc2o1`, the AC50 under setting [1] was 14.1 µM [falling, partial curve].
Same read-out and setting: the figure for `COCCN(CCOC)C(=O)c1ccc(SCc2ccc(C)cc2)c([N+](=O)[O-])c1` is 15.8 µM [falling, partial curve].

The term AC50 denotes the concentration at which the activity in the assay is half-maximal.

Source of the values: PubChem BioAssay AID493014 (National Center for Advancing Translational Sciences (NCATS), 2011).
